Structures can show the parent of a compound that is named as a salt. This is one part of the list. Single values are uncertain here, since repeats match poorly.
What follows are molecules tested on Brugia pahangi adult female (assay: motility inhibition on day 3 relative to DMSO vehicle; higher = more active). Details: 10 µM; 3 days.

Compound	motility inhibition on day 3 [%]
CC(=O)OCC(=O)[C@@]1(O)CC[C@H]2[C@@H]3CCC4=CC(=O)CC[C@]4(C)[C@@]3(F)[C@@H](O)C[C@@]21C [fludrocortisone acetate]	18.4
O=C(O)CCCCCCCC(=O)O [azelaic acid]	37.6
CCCOc1ccc(S(=O)(=O)NCCC2CCCN2C)cc1-c1nc2c(CCC)nn(C)c2c(=O)[nH]1 (stereo unspecified) [Udenafil]	2.96
CC(=O)OCC(=O)[C@@]1(O)CC[C@H]2[C@@H]3CCC4=CC(=O)C=C[C@]4(C)[C@@]3(Cl)[C@@H](Cl)C[C@@]21C [dichlorisone acetate]	< 0
CCCCN(CCCC)CCCOC(=O)c1ccc(N)cc1 [butacaine]	17.4
Cc1ccc(C(=O)c2ccc(CC(=O)O)n2C)cc1 [tolmetin sodium]	15.9
FC(F)(F)C(Cl)Br (stereo unspecified) [halothane]	18.4
O=C(O)CN1C(=O)c2cccc3cccc(c23)C1=O [alrestatin]	24.7
CN(C)c1cnccn1 [ampyzine sulfate]	< 0
CC(=O)OCC(=O)NCCCOc1cccc(CN2CCCCC2)c1 [roxatidine acetate hydrochloride]	17.9
CCn1cc(C(=O)O)c(=O)c2cc(F)c(N3CCNCC3)nc21 [enoxacin]	< 0
OC[C@@H](O)[C@@H](O)[C@H](O)[C@H](O)CO [mannitol]	8.35
C=CCc1ccc(O)c(OC)c1 [eugenol]	42.4
O=C1OC(c2ccc(O)cc2)(c2ccc(O)cc2)c2ccccc21 [phenolphthalein]	< 0
CC(C(=O)O)c1cccc(Oc2ccccc2)c1 (stereo unspecified) [fenoprofen]	18.5
O=C(O)CN(CCN(CC(=O)O)CC(=O)O)CC(=O)O.[Na+].[Na+].[Na+] [trisodium ethylenediamine tetracetate]	13.9
CCCc1ncc(C[n+]2ccccc2C)c(N)n1 [amprolium]	< 0
C[N+](C)(C)CCOP(=O)(O)OP(=O)([O-])OC[C@H]1O[C@@H](n2ccc(N)nc2=O)[C@H](O)[C@@H]1O [citicoline]	9.14
Nc1ccc(S(=O)(=O)NC(=O)c2ccccc2)cc1 [sulfabenzamide]	< 0
CC(C)c1nc(N(C)S(C)(=O)=O)nc(-c2ccc(F)cc2)c1/C=C/[C@@H](O)C[C@@H](O)CC(=O)O [rosuvastatin]	15.5
C=C(CC)C(=O)c1ccc(OCC(=O)O)c(Cl)c1Cl [ethacrynic acid]	82.9
CS(=O)(=O)c1ccc([C@@H](O)[C@@H](CF)NC(=O)C(Cl)Cl)cc1 [florfenicol]	4.22
CCN(CC)CCCC(C)Nc1ccnc2cc(Cl)ccc12 (stereo unspecified) [Chloroquine phosphate]	8.34
FCOC(C(F)(F)F)C(F)(F)F [sevoflurane]	37.2
Cc1cccc(C)c1NC(=O)c1ccccc1C(=O)O [ftaxilide]	18.2
CCCCN1C[C@H](O)[C@@H](O)[C@H](O)[C@H]1CO [Miglustat]	< 0

Taken from above:
motility inhibition on day 3 [%] with CCCc1ncc(C[n+]2ccccc2C)c(N)n1 [amprolium] is entered as < 0
motility inhibition on day 3 [%] with CC(=O)OCC(=O)NCCCOc1cccc(CN2CCCCC2)c1 [roxatidine acetate hydrochloride] is entered as 17.9
motility inhibition on day 3 [%] with CC(C(=O)O)c1cccc(Oc2ccccc2)c1 (stereo unspecified) [fenoprofen] is entered as 18.5
motility inhibition on day 3 [%] with C[N+](C)(C)CCOP(=O)(O)OP(=O)([O-])OC[C@H]1O[C@@H](n2ccc(N)nc2=O)[C@H](O)[C@@H]1O [citicoline] is entered as 9.14

Later entries:

Compound	motility inhibition on day 3 [%]
C[C@@H](O)[C@H]1C(=O)N2C(C(=O)O)=C(SCCNC=N)C[C@H]12 [imipenem]	5.22
c1ccc2c(c1)CCCC2C1=NCCN1 (stereo unspecified) [tetrahydrozoline hydrochloride]	< 0
CC(C)(C)C(=O)OCOC(=O)[C@@H]1N2C(=O)[C@@H](/N=C/N3CCCCCC3)[C@H]2SC1(C)C [Pivmecillinam]	16.3
Cc1ncc([N+](=O)[O-])n1C [dimetridazole]	< 0
N[C@@H](CC(=O)O)C(=O)O [L-Aspartic acid]	11.4
C1N2CN3CN1CN(C2)C3 [methenamine]	3.08
C[Se]CC[C@H](N)C(=O)O [selenomethionine]	38.2
CCCCCN(C)CCC(O)(P(=O)(O)O)P(=O)(O)O [ibandronate sodium]	2.74
N[C@@H](CS)C(=O)O [L-Cysteine]	1.04
N[C@@H](CS)C(=O)O [L-Cysteine hydrochloride]	< 0
CCOC(=O)N1CCC(=C2c3ccc(Cl)cc3CCc3cccnc32)CC1 [loratadine]	< 0
Nc1nc(F)nc2c1ncn2[C@@H]1O[C@H](COP(=O)(O)O)[C@@H](O)[C@@H]1O [fludarabine phosphate]	17.3
COc1ccc(C(=O)CCC(=O)O)c2ccccc12 [Menbutone]	< 0
NC(=O)c1ccccc1O [salicylamide]	22.6
CC(C)C[C@H](NC(=O)[C@H](Cc1ccccc1)NC(=O)c1cnccn1)B(O)O [Bortezomib]	2.33
COc1ccc(CC(C)NCC(O)c2ccc(O)c(NC=O)c2)cc1 (stereo unspecified) [Formoterol]	89.9
COc1ccc(CC(C)NCC(O)c2ccc(O)c(NC=O)c2)cc1 (stereo unspecified) [Formoterol fumarate dihydrate]	5.22
Oc1c(Br)cc(Br)c2cccnc12 [broxyquinoline]	87.7
CN(C)[C@@H]1C(O)=C(C(N)=O)C(=O)[C@@]2(O)C(O)=C3C(=O)c4c(O)cccc4[C@@](C)(O)[C@H]3C[C@@H]12 [tetracycline hydrochloride]	< 0
C[C@H](N[C@@H](CCc1ccccc1)C(=O)O)C(=O)N1CCC[C@H]1C(=O)O [enalaprilat]	2.78
NC(=O)N[C@@H](CCC(=O)O)C(=O)O [carglumic acid]	19.3
CC(=O)[C@@]12O[C@](C)(c3ccccc3)O[C@@H]1C[C@H]1[C@@H]3CCC4=CC(=O)CC[C@]4(C)[C@H]3CC[C@@]12C [algestone acetophenide]	< 0
COC(=O)[C@H](c1ccccc1Cl)N1CCc2sccc2C1 [clopidogrel sulfate]	1.16
C[C@]12CCC(=O)C=C1CC[C@@H]1[C@@H]2C(=O)C[C@@]2(C)[C@H]1CC[C@]2(O)C(=O)CO [cortisone]	< 0
COCCCC/C(=N\OCCN)c1ccc(C(F)(F)F)cc1 [fluvoxamine maleate]	1.35
Cc1c(Cl)cccc1Nc1ccccc1C(=O)O [tolfenamic acid]	18.8

Compound	motility inhibition on day 3 [%]
CCCSc1ccc2[nH]c(NC(=O)OC)nc2c1 [albendazole]	13.5
CO[C@H]1/C=C/O[C@@]2(C)Oc3c(C)c(O)c4c(O)c(c(/C=N/N5CCN(C)CC5)c(O)c4c3C2=O)NC(=O)/C(C)=C\C=C\[C@H](C)[C@H](O)[C@@H](C)[C@@H](O)[C@@H](C)[C@H](OC(C)=O)[C@@H]1C [Rifampicin]	17.7
CO[C@H]1/C=C/O[C@@]2(C)Oc3c(C)c(O)c4c(O)c(c(/C=N/N5CCN(C)CC5)c(O)c4c3C2=O)NC(=O)/C(C)=C\C=C\[C@H](C)[C@H](O)[C@@H](C)[C@@H](O)[C@@H](C)[C@H](OC(C)=O)[C@@H]1C [rifampin]	< 0
O=C(O)c1ccccc1-c1c2cc(I)c(=O)c(I)c-2oc2c(I)c(O)c(I)cc12 [erythrosine sodium]	27
CCc1ccc(CCOc2ccc(CC3SC(=O)NC3=O)cc2)nc1 (stereo unspecified) [pioglitazone hydrochloride]	3.11
O=C1c2c(O)cc(CO)cc2C(OC2OC(CO)C(O)C(O)C2O)c2cccc(OC3OC(CO)C(O)C(O)C3O)c21 (stereo unspecified) [casanthranol [cascaroside a shown]]	< 0
Cc1ccc(N(CC2=NCCN2)c2cccc(O)c2)cc1 [Phentolamine mesylate]	42.9
O=C1c2ccccc2C(=O)C1c1ccccc1 [phenindione]	12.6
Clc1ccc2c(c1)C(N1CCNCC1)=Nc1ccccc1O2 [Amoxapine]	< 0
O=C(O)CCc1nc(-c2ccccc2)c(-c2ccccc2)o1 [oxaprozin]	< 0
c1ccc(CC2=NCCN2)cc1 [tolazoline hydrochloride]	< 0
OCCN1CCN(CCCN2c3ccccc3Sc3ccc(C(F)(F)F)cc32)CC1 [Fluphenazine dihydrochloride]	14.6
CC(C)(Oc1ccc(CCNC(=O)c2ccc(Cl)cc2)cc1)C(=O)O [bezafibrate]	33.8
CC1=C(/C=C/C(C)=C/C=C/C(C)=C/C=C/C=C(C)/C=C/C=C(C)/C=C/C2=C(C)CCCC2(C)C)C(C)(C)CCC1 [beta-carotene]	< 0
CC(C(=O)O)c1ccc(CC2CCCC2=O)cc1 (stereo unspecified) [loxoprofen]	< 0
CC[C@H]1OC(=O)[C@H](C)[C@@H](O[C@H]2C[C@@](C)(OC)[C@@H](O)[C@H](C)O2)[C@H](C)[C@@H](O[C@@H]2O[C@H](C)C[C@H](N(C)C)[C@H]2O)[C@](C)(O)C[C@@H](C)C(=O)[C@H](C)[C@@H](O)[C@]1(C)O [erythromycin]	10.3
Cc1cc(NC(=O)C2=C(O)c3ccccc3S(=O)(=O)N2C)no1 [isoxicam]	< 0
Cc1cc(C(C)(C)CC(C)(C)C)ccc1OCCOCC[N+](C)(C)Cc1ccccc1 [methylbenzethonium chloride]	97.4
CO[C@@]1(NC(=O)C2SC(=C(C(N)=O)C(=O)O)S2)C(=O)N2C(C(=O)O)=C(CSc3nnnn3C)CS[C@@H]21 (stereo partly specified) [cefotetan]	< 0
CN(C)CCCN1c2ccccc2CCc2ccc(Cl)cc21 [Clomipramine hydrochloride]	0.394
Clc1ccccc1CN1CCc2sccc2C1 [ticlopidine hydrochloride]	21.3
CCC(=O)O[C@H](CC(=O)O)C[N+](C)(C)C [levocarnitine propionate hydrochloride]	4.19
Nc1ccc(O)c(C(=O)O)c1 [mesalamine]	< 0
COc1cc2c(cc1O)CC[C@@H]1[C@@H]2CC[C@]2(C)[C@@H](O)CC[C@@H]12 [2-methoxyestradiol]	< 0

From the supplement of paper PMC7830784
